{"source": "PubChem BioAssay AID1159584 (Peter MacCallum Cancer Centre, 2016)", "test": "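Knock-downs that harm CDH1-null cells more than parental MCF10A cells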 (primary screen)", "system": "human MCF10A breast epithelial cells, parental and CDH1-null", "knock-down reagent": "siRNA against human genes", "read-out": "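ATP luminescence (CellTiter-Glo) viability per line relative to mean mock wells over all plates, and the ratio of CDH1-null to parental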", "direction": "CDH1-null / parental viability ratio: higher = CDH1-null cells survive relatively better than parental", "note": "The deposit covers about 18,000 reagents; below is a part drawn at random. Not all columns of the deposit are shown. No sequences are given here. Not given: the amount of reagent, the time to read-out."}
{"gene symbol": "PIGW (GeneID 284098)", "CDH1-null / parental viability ratio": 1.02}
{"gene symbol": "EFCAB3 (GeneID 146779)", "CDH1-null / parental viability ratio": 0.94}
{"gene symbol": "OR5B3 (GeneID 441608)", "CDH1-null / parental viability ratio": 1.19}
{"gene symbol": "DLL4 (GeneID 54567)", "CDH1-null / parental viability ratio": 1.14}
{"gene symbol": "HOXD8 (GeneID 3234)", "CDH1-null / parental viability ratio": 0.96}
{"gene symbol": "P2RX4 (GeneID 5025)", "CDH1-null / parental viability ratio": 1.36}
{"gene symbol": "SLCO1B7 (GeneID 338821)", "CDH1-null / parental viability ratio": 0.78}
{"gene symbol": "DNAH5 (GeneID 1767)", "CDH1-null / parental viability ratio": 0.97}
{"gene symbol": "LAIR2 (GeneID 3904)", "CDH1-null / parental viability ratio": 1.09}
{"gene symbol": "C9 (GeneID 735)", "CDH1-null / parental viability ratio": 1.05}
{"gene symbol": "NTN1 (GeneID 9423)", "CDH1-null / parental viability ratio": 1.14}
{"gene symbol": "COL4A3 (GeneID 1285)", "CDH1-null / parental viability ratio": 0.94}
{"gene symbol": "EXOSC10 (GeneID 5394)", "CDH1-null / parental viability ratio": 0.84}
{"gene symbol": "TTC39B (GeneID 158219)", "CDH1-null / parental viability ratio": 0.74}
{"gene symbol": "TRIP12 (GeneID 9320)", "CDH1-null / parental viability ratio": 1.01}
{"gene symbol": "MYH4 (GeneID 4622)", "CDH1-null / parental viability ratio": 1.14}
{"gene symbol": "CCDC74B (GeneID 91409)", "CDH1-null / parental viability ratio": 0.94}
{"gene symbol": "PARK7 (GeneID 11315)", "CDH1-null / parental viability ratio": 0.71}
{"gene symbol": "CCKAR (GeneID 886)", "CDH1-null / parental viability ratio": 0.87}
{"gene symbol": "PGF (GeneID 5228)", "CDH1-null / parental viability ratio": 1.14}

Laid out differently: 4 of the entries above
OR5B3 (GeneID 441608)
- CDH1-null / parental viability ratio: 1.19

DLL4 (GeneID 54567)
- CDH1-null / parental viability ratio: 1.14

HOXD8 (GeneID 3234)
- CDH1-null / parental viability ratio: 0.96

P2RX4 (GeneID 5025)
- CDH1-null / parental viability ratio: 1.36

Additional records follow:
{"gene symbol": "FAM209A (GeneID 200232)", "CDH1-null / parental viability ratio": 0.9}
{"gene symbol": "A3GALT2 (GeneID 127550)", "CDH1-null / parental viability ratio": 0.92}
{"gene symbol": "GARNL3 (GeneID 84253)", "CDH1-null / parental viability ratio": 1.05}
{"gene symbol": "LRRC1 (GeneID 55227)", "CDH1-null / parental viability ratio": 0.77}
{"gene symbol": "B3GALT5 (GeneID 10317)", "CDH1-null / parental viability ratio": 0.93}
{"gene symbol": "ZNF639 (GeneID 51193)", "CDH1-null / parental viability ratio": 0.74}
{"gene symbol": "ACMSD (GeneID 130013)", "CDH1-null / parental viability ratio": 1.21}
{"gene symbol": "NUP188 (GeneID 23511)", "CDH1-null / parental viability ratio": 1.1}
{"gene symbol": "TAS2R45 (GeneID 259291)", "CDH1-null / parental viability ratio": 0.74}
{"gene symbol": "FBXO39 (GeneID 162517)", "CDH1-null / parental viability ratio": 0.96}
{"gene symbol": "B4GALNT2 (GeneID 124872)", "CDH1-null / parental viability ratio": 0.87}
{"gene symbol": "RPL8 (GeneID 6132)", "CDH1-null / parental viability ratio": 1.5}
{"gene symbol": "MLC1 (GeneID 23209)", "CDH1-null / parental viability ratio": 1.46}
{"gene symbol": "RGPD1 (GeneID 400966)", "CDH1-null / parental viability ratio": 0.71}
{"gene symbol": "RBM15 (GeneID 64783)", "CDH1-null / parental viability ratio": 0.78}
{"gene symbol": "MCOLN3 (GeneID 55283)", "CDH1-null / parental viability ratio": 1.33}
{"gene symbol": "NAPG (GeneID 8774)", "CDH1-null / parental viability ratio": 0.96}
{"gene symbol": "EXT2 (GeneID 2132)", "CDH1-null / parental viability ratio": 0.98}
{"gene symbol": "ATP23 (GeneID 91419)", "CDH1-null / parental viability ratio": 0.73}
{"gene symbol": "C14orf180 (GeneID 400258)", "CDH1-null / parental viability ratio": 1.02}
{"gene symbol": "BRME1 (GeneID 79173)", "CDH1-null / parental viability ratio": 1.18}
{"gene symbol": "INKA1 (GeneID 389119)", "CDH1-null / parental viability ratio": 0.8}
{"gene symbol": "WFDC5 (GeneID 149708)", "CDH1-null / parental viability ratio": 1.16}
{"gene symbol": "SAP18 (GeneID 10284)", "CDH1-null / parental viability ratio": 0.73}
{"gene symbol": "OXCT1 (GeneID 5019)", "CDH1-null / parental viability ratio": 0.98}
